Measurements from “University of Dundee, Small-Polar-MMV Screening Library” (2021), ChEMBL document CHEMBL3988442.

Results are given as percent effect.
How 0% and 100% were set is not recorded. Most values in the screen are low, and negative values occur.
This is an unselected part of the compounds tested.
A dash means the value is not listed here; it may have been measured.

A: 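Whole-parasite assay of Trypanosoma brucei over 72 hours; the read-out is not stated. Tested at 30 µM. The record gives no direction; compounds that gave an IC50 in retests scored well above the rest, so higher reads as stronger inhibition. Values scatter widely below zero; nearly all retest evidence comes from the higher of the two concentrations used. Size under these conditions: about 64,000 compounds, about 940 of them at 50% or above in at least one test.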
B: 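Assay of Toxoplasma gondii numbers, read through their beta-galactosidase reporter with a colour substrate. Compounds at 10 µM. The record gives no direction; the compounds picked for IC50 retests had high values, so higher reads as fewer parasites. Of about 67,000 compounds tested this way, about 260 (0.38%) reached 50% or more in at least one test.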

compound,A,B
Cn1ncc2c1NC(=O)CC2c1c(Cl)cccc1Cl (stereo not given),-2.142,-8.192
COc1ccccc1C(=O)Nc1c(F)c(C(=O)NCCC(C)C)nn1C,-3.13,-7.289
Cc1nc(S(=O)(=O)NCCC(=O)NCc2ccsc2)cn1C,11.82,-0.8021
Cn1cc(CCN2CCOC(CNc3cccnn3)C2)cn1 (stereo not given),-,11.06
Cc1cc(C)n(CCNCc2cc(-c3ccc(Cl)cc3)c[nH]c2=O)n1,-11.2,2.688
Cc1nn(C)c(Cl)c1C1CCCN1C(=O)c1ccc2c(c1)OCO2 (stereo not given),-23.27,-0.8616
CC1N(c2cnn(C)c2)C(=O)COC12CCN(Cc1ccoc1)CC2 (stereo not given),-19.87,9.088
Cc1ccccc1C1(CN)CCCCC1,-8.138,-1.959
CC(=O)N[C@@H]1C[C@H](Cc2ccccc2)O[C@H](c2ccc(C(=O)O)cc2)C1,1.45,5.35
c1ccc(Cc2noc(CN(Cc3cccs3)CC3CCCO3)n2)cc1 (stereo not given),36.73,-0.753
CC(C)(C)CC(=O)N1CCc2sccc2C1,-19.16,2.519
CNC(=O)CNCC1(O)CCCN(Cc2ccc(F)c(F)c2)C1=O (stereo not given),-53.62,30.62
Cc1cnn(-c2ccc(C(=O)N3CCCC(n4ccnc4C)C3)cc2)c1 (stereo not given),-14.65,6.102
COc1ccccc1CN(C)C(=O)CN1C(=O)OC[C@@H]1c1ccccc1,10.63,-19.8
CCCS(=O)(=O)CC(=O)Nc1ccsc1,-51.39,5.619
CCS(=O)(=O)N1CCN(C)c2ncccc2C1,-48.34,24.57
COc1ncccc1C(=O)N1CC(c2nc(-c3cccs3)no2)C1,-24.49,4.557
Cc1ccc(CNCC2Cn3nncc3CO2)s1 (stereo not given),-93.87,-5.766
CCn1cc(S(=O)(=O)Nc2nc3c(s2)CCCC3)cn1,7.653,-37.71
Cc1nn(C)c(Cl)c1C1CCCN1C(=O)c1nccnc1N (stereo not given),-17.23,2.585
CCOC1CCCN(C(=O)c2[nH]nc(C3CC3)c2Br)C1 (stereo not given),-19.37,-22.71
CNC(=O)N1CCCCC1CCNS(C)(=O)=O (stereo not given),-11.21,7.375
Cc1ccccc1N1CCN(c2cc(N(C)C)ncn2)C(C)C1 (stereo not given),6.135,-2.14
OC(CN1CCN(CCOCC(F)(F)F)CC1)c1ccccc1 (stereo not given),1.299,-13.34
[H][C@@]12CCC(=O)N(CCc3c[nH]cn3)[C@]1([H])CCN(Cc1cnn(C)c1)C2,5.291,25.03
Cc1cc(CNC(=O)N2CCN(C(C)c3cccnc3)CC2)c(C)o1 (stereo not given),-26.89,-4.042
O=C(NCc1ccccc1CO)Nc1ccc2c(c1)CCO2,-17.06,-7.571
CCCn1nc(C)c(C(=O)N(C)[C@@H]2CC[C@@H](OC)[C@@H]2O)c1C,-15.22,-18.38
CC(=O)N1CC[C@@H](N2CCN(C)CC2)[C@@H]1Cc1ccccc1,-,-12.72
N#Cc1ccc(F)c(CNc2ccc(F)cc2OCCO)c1,-51.1,-1.206
CCSc1ncc(CN2CC[C@@](O)(COC)C(C)(C)C2)cn1,-9.184,-20.91
COCc1nc2cc(NCc3ccncc3)ccc2o1,16.85,0.518
Cc1cc(C(N)=O)ccc1NC(=O)N1CCN(c2cccs2)CC1,-17.53,7.846
[H][C@@]12CCCO[C@]1([H])[C@H](NC(=O)CC1CC1)CN(Cc1nccs1)C2,-7.603,2.592
CC1COC2(CCN(C(=O)Cc3ccncc3)CC2)C1.O=C(O)C(F)(F)F (stereo not given),-15.33,4.148
c1coc(-c2noc(CN3CC(n4cccn4)C3)n2)c1,-2.081,-12.11
COc1ccc2[nH]cc(C(=O)CNc3nccs3)c2c1.I,-,7.814
O=C(Cn1cnc2cc3c(cc21)OCCCO3)NC1CCCCC1,-6.445,4.838
CC(NCc1ccc(-c2ccc(F)cc2)o1)c1nnc2n1CCC2 (stereo not given),-17.52,6.062
CCC1CCCCN1Cc1ncc(-c2ccc(OC)cc2)o1 (stereo not given),-7.643,1.829
O=C(c1cnccn1)N1CCN(c2ccnc3ccsc23)CC1,-26.37,-1.731
CCOCC1CN(C(=O)Cc2ccsc2)Cc2ccnn2C1.O=C(O)C(F)(F)F (stereo not given),1.67,-15.43
NC(=O)N1CCCN(C(=O)Nc2cc(-n3cccc3)ccc2F)CC1,1.194,0.5882
CCc1cnc(CN(C(C)=O)C2CCN(CCc3cnn(C)c3)C2)o1 (stereo not given),-29.41,-2.95
Cc1nc(C2CCCN2CC(=O)NCCc2ccsc2)no1 (stereo not given),-1.498,7.324
CC(C)c1nc2c(n1C)CCN(Cc1nc(-c3cccnc3)no1)C2,9.745,-3.478
NC(=O)c1cc(C2CCCN(CCOc3ccc(F)cc3)C2)n[nH]1 (stereo not given),3.019,-31.53
O=C(c1cnc(-c2ccccn2)s1)N1CCCC(n2cccn2)C1 (stereo not given),-1.244,-1.893
[H][C@@]12CCCC[C@]1(O)CCN(Cc1ccc(OC)c(C(=O)O)c1)C2,-142,-29.66
CCOCCOCc1cccc(CNc2cncc(-n3cccn3)n2)c1,-27.89,1.243
CC(NC(=O)CN1C=Nc2ccccc2S1(=O)=O)c1ccccc1 (stereo not given),-0.4811,1.23
OCC(O)CSCc1cn(-c2ccc(Cl)c(Cl)c2)nn1 (stereo not given),-20.9,-11.16
[H][C@]12CC[C@](O)(c3cccc(OC)c3)[C@@]1([H])CN(C(=O)c1c[nH]nc1C)C2,1.117,-0.6165
COc1ccc(-c2noc(CN3CC(n4cccn4)C3)n2)c(OC)c1,9.687,-3.706
Cc1ccc(C(=O)N2Cc3ccccc3OC3(CCOCC3)C2)cn1,-57.86,9.285
Cc1nc(CN(C)C(=O)c2ccc(Cn3cnnn3)cc2)cs1,-19.1,-11.36
Cc1[nH]c2c(F)cccc2c1CC(=O)N1CCCC(N)CC1 (stereo not given),-,-18.79
COc1cccc2c1ccn2CCNC(C)=O,-32.92,-27.25
Cc1n[nH]c(C)c1NC(=O)NCc1cc[nH]n1,-26.69,11.82
CCOC(=O)N1CCC(NC(C)c2ccccc2-n2cccn2)CC1 (stereo not given),-51.75,2.927
O=C(O)C(F)(F)F.[H][C@@]12CCN(C3CCC3)C[C@]1(C(=O)NCc1ccco1)CCO2,-1.278,12.96
Cc1nc(CC(=O)N2CCCN(c3ccc(F)cc3)CC2)cs1,13.76,6.734
[H][C@@]12CCN(Cc3c(C)noc3C)C[C@]1(C(=O)NC)CCO2,-99.92,-1.941
CN(Cc1ccco1)C(=O)CN1CCCCC1Cn1cncn1 (stereo not given),4.021,6.601
Cc1nc(CN2CCCC(N(C)CCc3cccs3)C2)no1 (stereo not given),-39.15,-6.106

5 of the entries, repeated:

Result for CCCS(=O)(=O)CC(=O)Nc1ccsc1 was A: -51.39%; B: 5.619%.
Result for CC1N(c2cnn(C)c2)C(=O)COC12CCN(Cc1ccoc1)CC2 (stereo not given) was A: -19.87%; B: 9.088%.
Result for Cn1cc(CCN2CCOC(CNc3cccnn3)C2)cn1 (stereo not given) was B: 11.06%.
Result for CCS(=O)(=O)N1CCN(C)c2ncccc2C1 was A: -48.34%; B: 24.57%.
Result for O=C(Cn1cnc2cc3c(cc21)OCCCO3)NC1CCCCC1 was A: -6.445%; B: 4.838%.